In PubChem BioAssay AID2685 (National Center for Advancing Translational Sciences (NCATS), 2010) one finds cell number change and AC50 data, which are given here for 18 compounds.

A short description of the assay: qHTS Assay for Lipid Storage Modulators in Drosophila S3 Cells.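 For cell number change: cells counted by Cell Tracker Red CMTPX staining in the red channel.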 As to conditions: BODIPY lipid droplet fluorescence, 18-24 h; for cell number change: measured here: cell count max response, cells fed with added oleic acid. In short, it runs like this:
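Laser-scanning cytometry quantifies lipid droplet accumulation (500–530 nm total intensity; droplet/cell object ratio) in oleic acid-fed (400 uM added) Drosophila S3 cells treated with a concentration series. 20 uM Triacsin C defined 100% inhibition.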
On the technique in general: In qHTS, concentration-response curves come from the screen itself.

[1] abbreviates: measured here: cell number channel AC50, cells fed with added oleic acid.
[2] abbreviates: measured here: lipid fluorescence (Fed channel) AC50, cells fed with added oleic acid.

The other results are listed elsewhere or left out. Shown are side measurements of this screen, not its main read-out; they come without a call. Compounds called inactive in the main read-out are mostly missing here. The note in brackets gives the kind of curve behind each potency; many fits are weak.

`COc1ccc(N2CCN(C(=O)CCCn3c(=S)[nH]c4cc5c(cc4c3=O)OCO5)CC2)cc1`: the cell number change was -15.1%. Moreover, under setting [1], the concentration at half-maximal activity (AC50) was 0.326 µM [rising, partial curve]. Also, the AC50 under setting [2] was 1.64 µM [rising, partial curve].
In the case of `COc1cc(C(=O)NC(C)c2cc(C)ccc2C)ccc1OCC(=O)N1CCOCC1` (configuration not stated), the cell number change came to 11.7%. The AC50 under setting [2] is 29.1 µM [rising, single point].
As to `Cc1ccc(NC(=S)NNC(=O)c2ccc(N3CCOCC3)c([N+](=O)[O-])c2)cc1C`, the cell number change was -8.48%.
Take `CC(C)NC(=O)CSc1nc2ccccc2n1CC(=O)N1CCc2ccccc21`: the cell number change came out at 80.1%. Also, the AC50 under setting [1] was 6.51 µM [rising, partial curve, poor fit]. Moreover, the AC50 under setting [2] is 0.461 µM [rising, partial curve].
For the compound `CCc1cc2cccc(C)c2nc1SCC(=O)NC1CCCC1`, the cell number change was 3.04%.
Take `Cc1ccc(O)c(NC(=O)Cc2ccc3ccccc3c2)c1`: the cell number change is -10.7%.
On to `O=C(COC(=O)C1CC2CCCC(C1)C2=O)Nc1cccc(F)c1` (configuration not stated), for which the cell number change was -0.497%. The half-maximal activity concentration (AC50) under setting [2] was 0.146 µM [falling, full curve, poor fit].
With `Cn1ccsc1=NC(=O)c1ccccc1F`, the cell number change was found to be 3.64%. The AC50 under setting [1] is 0.00461 µM [falling, full curve, poor fit].
With `COc1ccc(NC(=O)c2cc(C)nc3ccccc23)c(OC)c1`, the cell number change is -65.2%.
Consider `Cc1occc1-c1nnc(SCC(=O)Nc2ccccc2)n1CCc1ccccc1`, for which the half-maximal activity concentration (AC50) is 0.146 µM [rising, full curve, poor fit] under setting [1] and 0.13 µM [rising, full curve, poor fit] under setting [2].
In the case of `Cc1ccccc1CS(=O)(=O)Cc1ccc(C(=O)NCCCN2CCOCC2)o1`, the cell number change was -67.8%. The concentration at half-maximal activity (AC50) under setting [1] is 1.64 µM [falling, partial curve].
As for `Cc1nn(C)cc1/C=C1\SC(=S)NC1=O`, the AC50 under setting [2] is 0.291 µM [rising, partial curve, poor fit].
Turning to `O=C(CN(C(=O)C1CSC(=O)C1)c1ccc(F)cc1)NCc1ccc2c(c1)OCO2` (configuration not stated), the cell number change was found to be 8.33%.
Turning to `COc1ccc(CNC(=O)CNC(=O)c2ccc(C(C)(C)C)cc2)cc1OC`, the cell number change was -2.78%. Moreover, the AC50 under setting [2] was 6.51 µM [falling, single point].
In the case of `O=C(CCNC(=O)c1ccc(Br)cc1)Nc1ccc(S(=O)(=O)N2CCCCC2)cc1`, the cell number change was -0.427%. Also, under setting [2], the concentration at half-maximal activity (AC50) is 4.61 µM [falling, single point].
With `CC(c1ccccc1)N1CCn2c(nc3cc(NC(=O)NC4CCCCC4)ccc32)C1` (configuration not stated), the cell number change was 1.85%. Besides, under setting [1], the AC50 is 1.03 µM [rising, partial curve]. Besides, the AC50 under setting [2] was 6.51 µM [rising, single point].
For `CC(=O)Nc1nnc(SCC(=O)N2CCc3ccccc32)s1`, the cell number change is 5.71%.
On to `FC(F)(F)c1ccc(NC(=S)NC2CCCCC2)cc1`, for which the cell number change was -52.5%. For the same compound, the half-maximal activity concentration (AC50) under setting [1] was 1.64 µM [falling, partial curve].

The term AC50 denotes the concentration giving half of the maximal activity seen.
